Test results: article doi:10.1101/2024.10.03.616509
These are yes or no findings as the source states them, for the method shown. Some results given as binding are weak or reduced against the parent protein; the word gives no strength.

What was measured:
Assay in all cases: two-hybrid
[1] = biological target: T1, Vps33a (UniProt Q96AX1)
T1 sequence: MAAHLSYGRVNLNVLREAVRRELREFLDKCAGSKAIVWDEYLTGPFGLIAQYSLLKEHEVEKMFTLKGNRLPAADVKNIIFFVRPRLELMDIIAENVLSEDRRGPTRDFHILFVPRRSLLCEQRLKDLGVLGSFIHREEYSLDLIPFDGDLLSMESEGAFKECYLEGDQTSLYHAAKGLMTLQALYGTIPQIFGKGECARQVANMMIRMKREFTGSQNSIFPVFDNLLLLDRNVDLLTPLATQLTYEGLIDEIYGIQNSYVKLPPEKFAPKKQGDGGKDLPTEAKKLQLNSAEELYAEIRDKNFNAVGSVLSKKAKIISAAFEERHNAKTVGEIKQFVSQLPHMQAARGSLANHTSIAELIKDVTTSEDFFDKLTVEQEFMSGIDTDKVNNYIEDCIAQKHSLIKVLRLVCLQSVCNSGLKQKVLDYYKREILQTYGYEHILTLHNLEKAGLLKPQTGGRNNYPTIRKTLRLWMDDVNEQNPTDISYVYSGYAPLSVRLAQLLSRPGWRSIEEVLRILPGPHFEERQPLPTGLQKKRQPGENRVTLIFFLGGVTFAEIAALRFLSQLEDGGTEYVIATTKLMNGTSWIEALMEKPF

[2] = biological target: T2, Vps39 (UniProt Q96JC1)
T2 sequence: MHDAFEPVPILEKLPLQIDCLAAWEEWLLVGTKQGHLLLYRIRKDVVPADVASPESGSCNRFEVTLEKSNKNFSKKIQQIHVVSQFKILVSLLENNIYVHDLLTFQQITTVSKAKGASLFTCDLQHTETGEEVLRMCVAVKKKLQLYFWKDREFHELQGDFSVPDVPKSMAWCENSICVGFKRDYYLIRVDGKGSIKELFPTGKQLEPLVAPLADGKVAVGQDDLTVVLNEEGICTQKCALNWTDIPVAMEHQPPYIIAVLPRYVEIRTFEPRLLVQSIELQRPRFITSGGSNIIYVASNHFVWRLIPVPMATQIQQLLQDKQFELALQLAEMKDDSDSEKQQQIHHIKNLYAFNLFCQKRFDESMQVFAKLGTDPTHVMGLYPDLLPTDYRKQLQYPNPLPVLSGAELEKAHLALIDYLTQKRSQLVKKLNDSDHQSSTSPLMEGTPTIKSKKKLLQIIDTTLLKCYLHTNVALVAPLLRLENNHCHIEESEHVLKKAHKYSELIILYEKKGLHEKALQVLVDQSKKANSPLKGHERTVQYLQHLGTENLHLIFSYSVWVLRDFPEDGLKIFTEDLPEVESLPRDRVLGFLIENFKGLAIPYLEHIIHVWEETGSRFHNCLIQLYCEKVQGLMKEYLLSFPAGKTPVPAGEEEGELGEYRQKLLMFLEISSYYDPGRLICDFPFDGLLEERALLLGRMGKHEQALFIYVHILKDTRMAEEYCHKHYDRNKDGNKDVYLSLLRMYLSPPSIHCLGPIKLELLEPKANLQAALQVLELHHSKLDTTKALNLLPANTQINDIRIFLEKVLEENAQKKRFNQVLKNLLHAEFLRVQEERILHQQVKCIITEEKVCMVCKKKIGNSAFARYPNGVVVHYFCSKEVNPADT

[3] = biological target: T3, Vps41 (UniProt P49754)
T3 sequence: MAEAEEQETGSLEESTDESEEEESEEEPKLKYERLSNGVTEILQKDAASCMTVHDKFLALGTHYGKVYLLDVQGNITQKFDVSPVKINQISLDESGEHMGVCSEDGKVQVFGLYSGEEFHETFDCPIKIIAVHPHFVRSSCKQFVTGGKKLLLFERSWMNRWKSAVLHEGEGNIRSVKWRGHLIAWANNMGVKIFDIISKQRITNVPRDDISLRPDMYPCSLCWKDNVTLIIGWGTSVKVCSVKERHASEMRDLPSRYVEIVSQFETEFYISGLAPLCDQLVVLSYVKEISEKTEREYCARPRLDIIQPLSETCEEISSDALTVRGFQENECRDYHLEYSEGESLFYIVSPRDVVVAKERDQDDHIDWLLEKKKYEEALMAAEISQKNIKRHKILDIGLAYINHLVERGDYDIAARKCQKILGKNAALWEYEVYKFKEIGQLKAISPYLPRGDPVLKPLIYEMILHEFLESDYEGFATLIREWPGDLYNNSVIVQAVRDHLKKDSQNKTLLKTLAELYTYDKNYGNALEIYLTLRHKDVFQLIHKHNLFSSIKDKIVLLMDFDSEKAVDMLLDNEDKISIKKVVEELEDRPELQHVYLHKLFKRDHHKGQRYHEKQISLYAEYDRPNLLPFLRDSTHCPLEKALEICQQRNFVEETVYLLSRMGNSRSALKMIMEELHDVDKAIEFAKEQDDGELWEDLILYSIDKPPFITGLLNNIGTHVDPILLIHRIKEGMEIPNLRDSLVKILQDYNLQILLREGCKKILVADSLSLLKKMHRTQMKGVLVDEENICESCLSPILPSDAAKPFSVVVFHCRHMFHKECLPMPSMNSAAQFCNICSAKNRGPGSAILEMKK

Measured: binding

B1: TECPR2 (WT) (protein, UniProt O15040 1-1411)
chain: MASISEPVTFREFCPLYYLLNAIPTKIQKGFRSIVVYLTALDTNGDYIAVGSSIGMLYLYCRHLNQMRKYNFEGKTESITVVKLLSCFDDLVAAGTASGRVAVFQLVSSLPGRNKQLRRFDVTGIHKNSITALAWSPNGMKLFSGDDKGKIVYSSLDLDQGLCNSQLVLEEPSSIVQLDYSQKVLLVSTLQRSLLFYTEEKSVRQIGTQPRKSTGKFGACFIPGLCKQSDLTLYASRPGLRLWKADVHGTVQATFILKDAFAGGVKPFELHPRLESPNSGSCSLPERHLGLVSCFFQEGWVLSWNEYSIYLLDTVNQATVAGLEGSGDIVSVSCTENEIFFLKGDRNIIRISSRPEGLTSTVRDGLEMSGCSERVHVQQAEKLPGATVSETRLRGSSMASSVASEPRSRSSSLNSTDSGSGLLPPGLQATPELGKGSQPLSQRFNAISSEDFDQELVVKPIKVKRKKKKKKTEGGSRSTCHSSLESTPCSEFPGDSPQSLNTDLLSMTSSVLGSSVDQLSAESPDQESSFNGEVNGVPQENTDPETFNVLEVSGSMPDSLAEEDDIRTEMPHCHHAHGRELLNGAREDVGGSDVTGLGDEPCPADDGPNSTQLPFQEQDSSPGAHDGEDIQPIGPQSTFCEVPLLNSLTVPSSLSWAPSAEQWLPGTRADEGSPVEPSQEQDILTSMEASGHLSTNLWHAVTDDDTGQKEIPISERVLGSVGGQLTPVSALAASTHKPWLEQPPRDQTLTSSDEEDIYAHGLPSSSSETSVTELGPSCSQQDLSRLGAEDAGLLKPDQFAESWMGYSGPGYGILSLVVSEKYIWCLDYKGGLFCSALPGAGLRWQKFEDAVQQVAVSPSGALLWKIEQKSNRAFACGKVTIKGKRHWYEALPQAVFVALSDDTAWIIRTSGDLYLQTGLSVDRPCARAVKVDCPYPLSQITARNNVVWALTEQRALLYREGVSSFCPEGEQWKCDIVSERQALEPVCITLGDQQTLWALDIHGNLWFRTGIISKKPQGDDDHWWQVSITDYVVFDQCSLFQTIIHATHSVATAAQAPVEKVADKLRMAFWSQQLQCQPSLLGVNNSGVWISSGKNEFHVAKGSLIGTYWNHVVPRGTASATKWAFVLASAAPTKEGSFLWLCQSSKDLCSVSAQSAQSRPSTVQLPPEAEMRAYAACQDALWALDSLGQVFIRTLSKSCPTGMHWTRLDLSQLGAVKLTSLACGNQHIWACDSRGGVYFRVGTQPLNPSLMLPAWIMIEPPVQPAGVSLVSVHSSPNDQMLWVLDSRWNVHVRTGITEEMPVGTAWEHVPGLQACQLALSTRTVWARCPNGDLARRYGVTDKNPAGDYWKKIPGSVSCFTVTASDELWAVGPPGYLLQRLTKTFSHSHGTQKSSQAAMPHPEDLEDEWEVI
binds: all assays above
